Test results as given in PubChem BioAssay AID234 (DTP/NCI, 2004).
The list is a part of this screen's results and no random one: its compounds were picked by chemical class. Not every dose and run of a compound is shown. T/C is the treated group as % of the vehicle group. Schedules are NCI's codes, taken here to give the interval after Q, in days (D) or hours (H), and the number of doses after X. Some doses were run more than once; the results are listed from low to high. Some T/C values are marked as having no survivor count here; that says nothing about deaths at the dose. Counts like (3×) stand for listed records that agree. Some T/C values are followed by the survivors on the day toxicity was checked; without a count or a note in brackets, all were alive then. Some entries give survivors of the animals treated and no T/C: the source holds a T/C of zero for them, seemingly a mark for toxic or unscored doses. Counts of survivors are from the toxicity check, whose day is not always given; animals may have died later.

System: C3AKF1 mice, hamster liver cystadenocarcinoma s.c., tumor weight T/C
Assay: NCI In Vivo Anticancer Drug Screen. Data for tumor model Cystadenocarcinoma, Liver (No. 1) (Hamster) (subcutaneous) in C3AKF1 (CHKRF1) mice
Details: T/C endpoint: mean tumor weight, schedule: Q01DX010 (ip), higher T/C = larger tumour
Protocol: The antitumor activity of compounds was measured in mice bearing transplantable tumors. Survival or tumor size were measured and the results are expressed as the measurement made in the treated group (T) divided by the measurement made in the vehicle treated control group (C). The tumor model used in this assay is Cystadenocarcinoma, Liver (No. 1) (Hamster) (subcutaneous) in C3AKF1 (CHKRF1) mice

CCOC(=O)COc1ccc(N(CCCl)CCCl)cc1
T/C (dose: 2.0 mg/kg/injection, vehicle: carboxymethylcellulose (CMC), evaluated on day 15): 150 % of control | T/C (dose: 4.0 mg/kg/injection, vehicle: carboxymethylcellulose (CMC), evaluated on day 15): 84 % of control | T/C (dose: 8.0 mg/kg/injection, vehicle: carboxymethylcellulose (CMC), evaluated on day 15): 74 % of control | T/C (dose: 16.0 mg/kg/injection, vehicle: carboxymethylcellulose (CMC), evaluated on day 15): 31 % of control [4 of 6 alive]

BrCc1cccc(CBr)c1
T/C (dose: 1.25 mg/kg/injection, vehicle: carboxymethylcellulose (CMC), evaluated on day 15): 101 % of control | T/C (dose: 2.5 mg/kg/injection, vehicle: carboxymethylcellulose (CMC), evaluated on day 15): 115 % of control | T/C (dose: 5.0 mg/kg/injection, vehicle: carboxymethylcellulose (CMC), evaluated on day 15): 117 % of control | survivor count (dose: 10.0 mg/kg/injection, vehicle: carboxymethylcellulose (CMC)): 0 of 6

N/C(=N\[N+](=O)[O-])N(CCO[N+](=O)[O-])N=O
T/C (dose: 3.75 mg/kg/injection, vehicle: carboxymethylcellulose (CMC), evaluation day not shown): 75 % of control [survivor count not shown] | T/C (dose: 7.5 mg/kg/injection, vehicle: carboxymethylcellulose (CMC), evaluation day not shown): 65 % of control [survivor count not shown] | T/C (dose: 15.0 mg/kg/injection, vehicle: carboxymethylcellulose (CMC), evaluation day not shown): 79 % of control [survivor count not shown] (2×) | T/C (dose: 30.0 mg/kg/injection, vehicle: carboxymethylcellulose (CMC), evaluation day not shown): 89 [survivor count not shown] and 124 % of control [survivor count not shown] | T/C (dose: 60.0 mg/kg/injection, vehicle: carboxymethylcellulose (CMC), evaluation day not shown): 84 % of control [survivor count not shown]

O[C@H](CNCCBr)[C@@H](O)CNCCBr
T/C (dose: 0.2 mg/kg/injection, vehicle: saline, evaluated on day 15): 107 % of control | T/C (dose: 0.5 mg/kg/injection, vehicle: saline, evaluated on day 15): 74 % of control [5 of 6 alive] | T/C (dose: 1.0 mg/kg/injection, vehicle: saline, evaluated on day 15): 54 and 73 % of control | T/C (dose: 2.0 mg/kg/injection, vehicle: saline, evaluated on day 15): 65 [5 of 6 alive] and 88 % of control [6 of 7 alive] | T/C (dose: 4.0 mg/kg/injection, vehicle: saline, evaluated on day 15): 62 % of control [6 of 7 alive] | survivor count (dose: 8.0 mg/kg/injection, vehicle: saline): 0 of 7
